# Laboratory results taken from patent US9469650B2, “Melampomagnolide B derivatives” (BOARD OF TRUSTEES OF THE UNIVERSITY OF ARKANSAS, priority 2013, dated 2016).
# The name of at least one read-out is uncertain.
# What was measured:
# NCI-H23 = test: panel of 60 human tumor cell lines, growth inhibition (Non-Small Cell Lung Cancer)
# MOLT-4 = test: panel of 60 human tumor cell lines, growth inhibition (Leukemia)
# UACC-62 = test: panel of 60 human tumor cell lines, growth inhibition (Melanoma)
# SK-OV-3 = test: panel of 60 human tumor cell lines, growth inhibition (Ovarian Cancer)
# MCF7 = test: panel of 60 human tumor cell lines, growth inhibition (Breast Cancer)
# ACHN = test: panel of 60 human tumor cell lines, growth inhibition (Renal Cancer)
# HCT-15 = test: panel of 60 human tumor cell lines, growth inhibition (Colon Cancer)
# SW-620 = test: as above
# U251 = test: panel of 60 human tumor cell lines, growth inhibition (CNS Cancer)
# NCI-H226 = test: panel of 60 human tumor cell lines, growth inhibition (Non-Small Cell Lung Cancer)
# OVCAR-8 = test: panel of 60 human tumor cell lines, growth inhibition (Ovarian Cancer)
# NCI-H522 = test: panel of 60 human tumor cell lines, growth inhibition (Non-Small Cell Lung Cancer)
# BT-549 = test: panel of 60 human tumor cell lines, growth inhibition (Breast Cancer); conditions: BT-549
# IGROV1 = test: panel of 60 human tumor cell lines, growth inhibition (Ovarian Cancer); conditions: IGROV1
# DU-145 = test: panel of 60 human tumor cell lines, growth inhibition (Prostate Cancer)
# OVCAR-4 = test: panel of 60 human tumor cell lines, growth inhibition (Ovarian Cancer); format: cell-based
# CAKI-1 = test: panel of 60 human tumor cell lines, growth inhibition (Renal Cancer)
# NCI/ADR-RES = test: panel of 60 human tumor cell lines, growth inhibition (Ovarian Cancer)
# MDA-MB-435 = test: panel of 60 human tumor cell lines, growth inhibition (Melanoma)
# HOP-92 = test: panel of 60 human tumor cell lines, growth inhibition (Non-Small Cell Lung Cancer)
# NCI-H460 = test: as above
compound,measurement,setting,value
C=C1C(=O)O[C@H]2[C@H]1CC/C(COC(=O)NCCCCCCO)=C\CC[C@@]1(C)O[C@@H]21 [JVM 2-31],Percent Growth,NCI-H23; Log10 Concentration −4.0,−70%
same,Percent Growth,NCI-H23; Log10 Concentration −5.0,68%
same,Percent Growth,NCI-H23; Log10 Concentration −6.0,101%
same,Percent Growth,NCI-H23; Log10 Concentration −7.0,102%
same,Percent Growth,NCI-H23; Log10 Concentration −8.0,100%
same,Percent Growth,MOLT-4; Log10 Concentration −4.0,−42%
same,Percent Growth,MOLT-4; Log10 Concentration −5.0,31%
same,Percent Growth,MOLT-4; Log10 Concentration −6.0,101%
same,Percent Growth,MOLT-4; Log10 Concentration −7.0,100%
same,Percent Growth,MOLT-4; Log10 Concentration −8.0,99%
same,Percent Growth,UACC-62; Log10 Concentration −4.0,−84%
same,Percent Growth,UACC-62; Log10 Concentration −5.0,41%
same,Percent Growth,UACC-62; Log10 Concentration −6.0,92%
same,Percent Growth,UACC-62; Log10 Concentration −7.0,96%
same,Percent Growth,UACC-62; Log10 Concentration −8.0,96%
same,Percent Growth,SK-OV-3; Log10 Concentration −4.0,−20%
same,Percent Growth,SK-OV-3; Log10 Concentration −5.0,109%
same,Percent Growth,SK-OV-3; Log10 Concentration −6.0,105%
same,Percent Growth,SK-OV-3; Log10 Concentration −7.0,98%
same,Percent Growth,SK-OV-3; Log10 Concentration −8.0,98%
same,Percent Growth,MCF7; Log10 Concentration −4.0,−76%
same,Percent Growth,MCF7; Log10 Concentration −5.0,34%
same,Percent Growth,MCF7; Log10 Concentration −6.0,67%
same,Percent Growth,MCF7; Log10 Concentration −7.0,92%
same,Percent Growth,MCF7; Log10 Concentration −8.0,95%
same,Percent Growth,ACHN; Log10 Concentration −4.0,−77%
same,Percent Growth,ACHN; Log10 Concentration −5.0,12%
same,Percent Growth,ACHN; Log10 Concentration −6.0,89%
same,Percent Growth,ACHN; Log10 Concentration −7.0,99%
same,Percent Growth,ACHN; Log10 Concentration −8.0,94%
same,Percent Growth,HCT-15; Log10 Concentration −4.0,−75%
same,Percent Growth,HCT-15; Log10 Concentration −5.0,7%
same,Percent Growth,HCT-15; Log10 Concentration −6.0,80%
same,Percent Growth,HCT-15; Log10 Concentration −7.0,90%
same,Percent Growth,HCT-15; Log10 Concentration −8.0,89%
same,Percent Growth,SW-620; Log10 Concentration −4.0,−59%
same,Percent Growth,SW-620; Log10 Concentration −5.0,8%
same,Percent Growth,SW-620; Log10 Concentration −6.0,87%
same,Percent Growth,SW-620; Log10 Concentration −7.0,98%
same,Percent Growth,SW-620; Log10 Concentration −8.0,99%
same,Percent Growth,U251; Log10 Concentration −4.0,−85%
same,Percent Growth,U251; Log10 Concentration −5.0,93%
same,Percent Growth,U251; Log10 Concentration −6.0,104%
same,Percent Growth,U251; Log10 Concentration −7.0,105%
same,Percent Growth,U251; Log10 Concentration −8.0,102%
same,Percent Growth,NCI-H226; Log10 Concentration −4.0,−55%
same,Percent Growth,NCI-H226; Log10 Concentration −5.0,34%
same,Percent Growth,NCI-H226; Log10 Concentration −6.0,87%
same,Percent Growth,NCI-H226; Log10 Concentration −7.0,88%
same,Percent Growth,NCI-H226; Log10 Concentration −8.0,92%
same,Percent Growth,OVCAR-8; Log10 Concentration −4.0,−64%
same,Percent Growth,OVCAR-8; Log10 Concentration −5.0,51%
same,Percent Growth,OVCAR-8; Log10 Concentration −6.0,101%
same,Percent Growth,OVCAR-8; Log10 Concentration −7.0,105%
same,Percent Growth,OVCAR-8; Log10 Concentration −8.0,102%
same,Percent Growth,NCI-H522; Log10 Concentration −4.0,−63%
same,Percent Growth,NCI-H522; Log10 Concentration −5.0,−63%
same,Percent Growth,NCI-H522; Log10 Concentration −6.0,84%
same,Percent Growth,NCI-H522; Log10 Concentration −7.0,101%
same,Percent Growth,NCI-H522; Log10 Concentration −8.0,102%
same,Percent Growth,BT-549; Log10 Concentration −4.0,−53%
same,Percent Growth,BT-549; Log10 Concentration −6.0,92%
same,Percent Growth,BT-549; Log10 Concentration −7.0,95%
same,Percent Growth,BT-549; Log10 Concentration −8.0,84%
same,Percent Growth,IGROV1; Log10 Concentration −4.0,−64%
same,Percent Growth,IGROV1; Log10 Concentration −5.0,86%
same,Percent Growth,IGROV1; Log10 Concentration −6.0,116%
same,Percent Growth,IGROV1; Log10 Concentration −7.0,113%
same,Percent Growth,IGROV1; Log10 Concentration −8.0,110%
same,Percent Growth,DU-145; Log10 Concentration −4.0,−96%
same,Percent Growth,DU-145; Log10 Concentration −5.0,18%
same,Percent Growth,DU-145; Log10 Concentration −6.0,92%
same,Percent Growth,DU-145; Log10 Concentration −7.0,106%
same,Percent Growth,DU-145; Log10 Concentration −8.0,99%
same,Percent Growth,OVCAR-4; Log10 Concentration −4.0,−68%
same,Percent Growth,OVCAR-4; Log10 Concentration −5.0,27%
same,Percent Growth,OVCAR-4; Log10 Concentration −6.0,85%
same,Percent Growth,OVCAR-4; Log10 Concentration −7.0,93%
same,Percent Growth,OVCAR-4; Log10 Concentration −8.0,86%
same,Percent Growth,CAKI-1; Log10 Concentration −4.0,−98%
same,Percent Growth,CAKI-1; Log10 Concentration −5.0,23%
same,Percent Growth,CAKI-1; Log10 Concentration −6.0,81%
same,Percent Growth,CAKI-1; Log10 Concentration −7.0,89%
same,Percent Growth,CAKI-1; Log10 Concentration −8.0,85%
same,Percent Growth,NCI/ADR-RES; Log10 Concentration −4.0,2%
same,Percent Growth,NCI/ADR-RES; Log10 Concentration −5.0,89%
same,Percent Growth,NCI/ADR-RES; Log10 Concentration −6.0,98%
same,Percent Growth,NCI/ADR-RES; Log10 Concentration −7.0,101%
same,Percent Growth,NCI/ADR-RES; Log10 Concentration −8.0,101%
same,Percent Growth,MDA-MB-435; Log10 Concentration −4.0,−64%
same,Percent Growth,MDA-MB-435; Log10 Concentration −5.0,28%
same,Percent Growth,MDA-MB-435; Log10 Concentration −6.0,91%
same,Percent Growth,MDA-MB-435; Log10 Concentration −7.0,98%
same,Percent Growth,MDA-MB-435; Log10 Concentration −8.0,91%
same,Percent Growth,HOP-92; Log10 Concentration −4.0,−85%
same,Percent Growth,HOP-92; Log10 Concentration −6.0,90%
same,Percent Growth,HOP-92; Log10 Concentration −7.0,92%
same,Percent Growth,HOP-92; Log10 Concentration −8.0,90%
same,Percent Growth,NCI-H460; Log10 Concentration −4.0,−36%
same,Percent Growth,NCI-H460; Log10 Concentration −5.0,88%
same,Percent Growth,NCI-H460; Log10 Concentration −6.0,100%
same,Percent Growth,NCI-H460; Log10 Concentration −7.0,102%
same,Percent Growth,NCI-H460; Log10 Concentration −8.0,101%
